Among the data in article PMC4695042 are binding values, retold here.

The chains behind the UniProt entries cited, without tags or fusion partners. Where a name states a change or a piece, a line headed by the entry shows the natural chain unless it says otherwise.
UniProt Q7L5N1: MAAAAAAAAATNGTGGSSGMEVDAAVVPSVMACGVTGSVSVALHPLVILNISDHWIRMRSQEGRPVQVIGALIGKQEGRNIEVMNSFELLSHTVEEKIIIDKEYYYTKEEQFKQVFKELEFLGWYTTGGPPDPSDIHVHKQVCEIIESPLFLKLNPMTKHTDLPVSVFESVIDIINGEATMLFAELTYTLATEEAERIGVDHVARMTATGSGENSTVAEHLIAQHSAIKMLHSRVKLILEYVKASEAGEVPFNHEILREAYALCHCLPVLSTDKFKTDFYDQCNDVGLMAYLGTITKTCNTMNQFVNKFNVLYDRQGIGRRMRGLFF
UniProt Q05086: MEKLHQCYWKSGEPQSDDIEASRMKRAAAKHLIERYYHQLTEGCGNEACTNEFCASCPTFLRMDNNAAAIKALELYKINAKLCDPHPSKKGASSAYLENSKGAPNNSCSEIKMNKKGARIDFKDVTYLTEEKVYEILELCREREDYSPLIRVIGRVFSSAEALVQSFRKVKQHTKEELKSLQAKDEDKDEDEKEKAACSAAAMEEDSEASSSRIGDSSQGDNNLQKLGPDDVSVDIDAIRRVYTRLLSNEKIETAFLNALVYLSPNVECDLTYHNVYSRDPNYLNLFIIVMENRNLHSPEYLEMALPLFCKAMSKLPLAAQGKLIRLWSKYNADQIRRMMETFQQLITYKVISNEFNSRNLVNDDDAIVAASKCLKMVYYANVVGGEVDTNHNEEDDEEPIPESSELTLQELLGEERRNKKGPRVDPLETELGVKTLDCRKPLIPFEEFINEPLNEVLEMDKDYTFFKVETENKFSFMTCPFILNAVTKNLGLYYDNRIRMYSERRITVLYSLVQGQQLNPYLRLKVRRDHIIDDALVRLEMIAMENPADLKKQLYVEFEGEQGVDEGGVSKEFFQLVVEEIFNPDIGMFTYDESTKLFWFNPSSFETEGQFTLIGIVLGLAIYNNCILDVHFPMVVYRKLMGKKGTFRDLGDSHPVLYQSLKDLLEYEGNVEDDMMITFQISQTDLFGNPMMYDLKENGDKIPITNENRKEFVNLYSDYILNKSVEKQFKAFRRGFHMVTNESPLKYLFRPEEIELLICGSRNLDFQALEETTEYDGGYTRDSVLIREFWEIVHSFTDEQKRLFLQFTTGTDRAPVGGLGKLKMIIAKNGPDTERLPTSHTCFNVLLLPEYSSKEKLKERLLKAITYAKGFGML

Results are given in words; binding and its absence hold for the method and conditions named. Binding seen in cells or lysates may run through a third protein. For some assays here: Binding can be weak; no strength is given.

Assay [1] deals with Flag-CSN6 C-terminus (aa 185-327) (UniProt Q7L5N1). Briefly: co-IP; Flag-CSN6 (aa 1-327), N-terminus or C-terminus transfected into HeLa cells; lysates immunoprecipitated with anti-Flag, immunoblotted with anti-E6AP (endogenous E6AP). A general note: In western blotting, separated proteins are transferred to a membrane and probed.
The target of assay [2] is Flag-CSN6 N-terminus (aa 1-184) (UniProt Q7L5N1). Described as above.

As for “E6-associated protein (E6AP/UBE3A), endogenous (from UniProt Q05086 1-875)”, the figures for the binding entry in assay [1] and in assay [2] were “no binding” and “binds”, respectively.
